PubChem BioAssay AID686938 | Drosophila RNAi Screening Center – 2013

- Purpose: 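Looking for CRAC channel components and the factors controlling them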 (primary screen)
- System: Drosophila S2R+ cells
- Reagent: long dsRNA against Drosophila genes, about 0.25 µg dsRNA per well, roughly 10,000 cells
- Duration: 5 days of knock-down before the calcium assay
- Treatment: thapsigargin (SERCA pump blocker) to empty calcium stores; entry signal taken 4 min after adding it
- Detection: 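Per-well fluo-4 fluorescence in two replicates, unnormalised, measured in resting cells and 4 min after store depletion by the SERCA blocker thapsigargin; ratio of the two present in few wells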
- Reading the numbers: calcium entry signal: higher = stronger calcium signal after store depletion; resting calcium signal: higher = higher resting calcium signal
- Rule for the call: 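Called when the plate z-score of the entry-to-rest ratio, mean of duplicates, falls below −3; wells with low overall dye signal (Fmax z below −2) or more than five off-targets excluded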
- Calls: active = strongly reduced calcium entry; inactive = no strong reduction
The screen tested about 23,000 reagents; below is a random part of those with a known target gene and a result. Of all reagents, 75 (0.33%) were called active. 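Raw plate signals without normalisation; calls rest on plate z-scores that were not deposited; ratio present for only 364 wells.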 A number with no mark means an inactive call. Names joined by + are all predicted targets of the reagent. No sequences are given here. Not stated in the record: the dose of the treatment.

Mtmr6 [DRSC04046] scored calcium entry signal, replicate 1 (fluorescence units) = 3.50e7; calcium entry signal, replicate 2 (fluorescence units) = 4.94e7; resting calcium signal, replicate 1 (fluorescence units) = 1.81e7; resting calcium signal, replicate 2 (fluorescence units) = 2.14e7.
With knock-down of uzip [DRSC04722], the record shows calcium entry signal, replicate 1 (fluorescence units) = 3.45e7; resting calcium signal, replicate 1 (fluorescence units) = 1.66e7.
Ugt36A1 [DRSC00748] showed calcium entry signal, replicate 1 (fluorescence units) = 2.95e7; calcium entry signal, replicate 2 (fluorescence units) = 3.54e7; resting calcium signal, replicate 1 (fluorescence units) = 1.38e7; resting calcium signal, replicate 2 (fluorescence units) = 1.60e7.
Against CG14042 + SP555 [DRSC02367], the entry reads calcium entry signal, replicate 1 (fluorescence units) = 4.74e7; calcium entry signal, replicate 2 (fluorescence units) = 4.10e7; resting calcium signal, replicate 1 (fluorescence units) = 2.22e7; resting calcium signal, replicate 2 (fluorescence units) = 2.00e7.
After knock-down of CG14042 + SP555 [DRSC03428], the record shows calcium entry signal, replicate 1 (fluorescence units) = 3.93e7; calcium entry signal, replicate 2 (fluorescence units) = 3.64e7; resting calcium signal, replicate 1 (fluorescence units) = 1.95e7; resting calcium signal, replicate 2 (fluorescence units) = 1.74e7.
CG31231 [DRSC13308] scored calcium entry signal, replicate 1 (fluorescence units) = 3.85e7; calcium entry signal, replicate 2 (fluorescence units) = 3.15e7; resting calcium signal, replicate 1 (fluorescence units) = 2.18e7; resting calcium signal, replicate 2 (fluorescence units) = 1.65e7.
Crys [DRSC03294] showed calcium entry signal, replicate 1 (fluorescence units) = 4.28e7; resting calcium signal, replicate 1 (fluorescence units) = 1.94e7.
Against Axn [DRSC14120], the entry reads calcium entry signal, replicate 1 (fluorescence units) = 1.12e8; calcium entry signal, replicate 2 (fluorescence units) = 3.36e7; resting calcium signal, replicate 1 (fluorescence units) = 3.15e7; resting calcium signal, replicate 2 (fluorescence units) = 1.59e7.
After knock-down of CG16853 [DRSC01877], the record shows calcium entry signal, replicate 1 (fluorescence units) = 3.64e7; calcium entry signal, replicate 2 (fluorescence units) = 2.26e7; resting calcium signal, replicate 1 (fluorescence units) = 1.63e7; resting calcium signal, replicate 2 (fluorescence units) = 1.17e7.
Depletion of CG9757 [DRSC16557] gave: calcium entry signal, replicate 1 (fluorescence units) = 3.54e7; calcium entry signal, replicate 2 (fluorescence units) = 4.69e7; resting calcium signal, replicate 1 (fluorescence units) = 1.71e7; resting calcium signal, replicate 2 (fluorescence units) = 6.55e7.
CG9757 [DRSC21707] scored calcium entry signal, replicate 1 (fluorescence units) = 3.39e7; calcium entry signal, replicate 2 (fluorescence units) = 3.17e7; resting calcium signal, replicate 1 (fluorescence units) = 1.86e7; resting calcium signal, replicate 2 (fluorescence units) = 1.63e7.
Knock-down of CG16739 [DRSC06621] came out at: calcium entry signal, replicate 1 (fluorescence units) = 4.12e7; calcium entry signal, replicate 2 (fluorescence units) = 4.69e7; resting calcium signal, replicate 1 (fluorescence units) = 1.79e7; resting calcium signal, replicate 2 (fluorescence units) = 2.12e7.
For CG10341 [DRSC02040] the deposit lists calcium entry signal, replicate 1 (fluorescence units) = 3.92e7; resting calcium signal, replicate 1 (fluorescence units) = 2.09e7.
Knock-down of knk [DRSC15993] came out at: calcium entry signal, replicate 1 (fluorescence units) = 2.77e7; calcium entry signal, replicate 2 (fluorescence units) = 2.12e7; resting calcium signal, replicate 1 (fluorescence units) = 1.45e7; resting calcium signal, replicate 2 (fluorescence units) = 1.09e7.
For CG15742 [DRSC19708], the entry reads calcium entry signal, replicate 1 (fluorescence units) = 4.52e7; calcium entry signal, replicate 2 (fluorescence units) = 4.57e7; resting calcium signal, replicate 1 (fluorescence units) = 2.05e7; resting calcium signal, replicate 2 (fluorescence units) = 2.08e7.
CG14322 [DRSC14801] showed calcium entry signal, replicate 1 (fluorescence units) = 2.95e7; calcium entry signal, replicate 2 (fluorescence units) = 3.61e7; resting calcium signal, replicate 1 (fluorescence units) = 4.43e7; resting calcium signal, replicate 2 (fluorescence units) = 1.58e7.
After knock-down of Cpr100A [DRSC14465], the screen gave calcium entry signal, replicate 1 (fluorescence units) = 4.01e7; calcium entry signal, replicate 2 (fluorescence units) = 5.87e7; resting calcium signal, replicate 1 (fluorescence units) = 1.86e7; resting calcium signal, replicate 2 (fluorescence units) = 2.38e7.

Sorted by “resting calcium signal, replicate 2 (fluorescence units)” (high to low): some entries from above.
CG14042 + SP555 [DRSC02367] — calcium entry signal, replicate 1 (fluorescence units): 4.74e7; calcium entry signal, replicate 2 (fluorescence units): 4.10e7; resting calcium signal, replicate 1 (fluorescence units): 2.22e7; resting calcium signal, replicate 2 (fluorescence units): 2.00e7
CG14042 + SP555 [DRSC03428] — calcium entry signal, replicate 1 (fluorescence units): 3.93e7; calcium entry signal, replicate 2 (fluorescence units): 3.64e7; resting calcium signal, replicate 1 (fluorescence units): 1.95e7; resting calcium signal, replicate 2 (fluorescence units): 1.74e7
CG31231 [DRSC13308] — calcium entry signal, replicate 1 (fluorescence units): 3.85e7; calcium entry signal, replicate 2 (fluorescence units): 3.15e7; resting calcium signal, replicate 1 (fluorescence units): 2.18e7; resting calcium signal, replicate 2 (fluorescence units): 1.65e7
Ugt36A1 [DRSC00748] — calcium entry signal, replicate 1 (fluorescence units): 2.95e7; calcium entry signal, replicate 2 (fluorescence units): 3.54e7; resting calcium signal, replicate 1 (fluorescence units): 1.38e7; resting calcium signal, replicate 2 (fluorescence units): 1.60e7

The results go on:
For RpL31 [DRSC06716], the entry reads calcium entry signal, replicate 1 (fluorescence units) = 1.84e7; calcium entry signal, replicate 2 (fluorescence units) = 3.35e7; resting calcium signal, replicate 1 (fluorescence units) = 1.21e7; resting calcium signal, replicate 2 (fluorescence units) = 1.91e7.
Depletion of Flacc [DRSC20040] resulted in: calcium entry signal, replicate 1 (fluorescence units) = 3.71e7; calcium entry signal, replicate 2 (fluorescence units) = 3.89e7; resting calcium signal, replicate 1 (fluorescence units) = 1.74e7; resting calcium signal, replicate 2 (fluorescence units) = 1.71e7.
Gpdh1 [DRSC03336] gave calcium entry signal, replicate 1 (fluorescence units) = 3.45e7; calcium entry signal, replicate 2 (fluorescence units) = 5.06e7; resting calcium signal, replicate 1 (fluorescence units) = 1.76e7; resting calcium signal, replicate 2 (fluorescence units) = 2.44e7.
Depletion of Gpdh1 [DRSC21666] resulted in: calcium entry signal, replicate 1 (fluorescence units) = 4.64e7; calcium entry signal, replicate 2 (fluorescence units) = 3.54e7; resting calcium signal, replicate 1 (fluorescence units) = 2.49e7; resting calcium signal, replicate 2 (fluorescence units) = 1.74e7.
Against CG10357 [DRSC08155] the deposit lists calcium entry signal, replicate 1 (fluorescence units) = 3.14e7; calcium entry signal, replicate 2 (fluorescence units) = 4.48e7; resting calcium signal, replicate 1 (fluorescence units) = 1.64e7; resting calcium signal, replicate 2 (fluorescence units) = 2.06e7.
Depletion of Ak1 [DRSC10248] came out at: calcium entry signal, replicate 1 (fluorescence units) = 2.73e7; calcium entry signal, replicate 2 (fluorescence units) = 3.17e7; resting calcium signal, replicate 1 (fluorescence units) = 1.47e7; resting calcium signal, replicate 2 (fluorescence units) = 1.60e7.
After knock-down of HINT1 [DRSC00548], the screen gave calcium entry signal, replicate 1 (fluorescence units) = 3.76e7; calcium entry signal, replicate 2 (fluorescence units) = 4.82e7; resting calcium signal, replicate 1 (fluorescence units) = 1.65e7; resting calcium signal, replicate 2 (fluorescence units) = 1.85e7.
Against CG14434 [DRSC17927], the values are calcium entry signal, replicate 1 (fluorescence units) = 2.85e7; calcium entry signal, replicate 2 (fluorescence units) = 3.69e7; resting calcium signal, replicate 1 (fluorescence units) = 1.54e7; resting calcium signal, replicate 2 (fluorescence units) = 1.74e7.
For CG9471 [DRSC16499], the entry reads calcium entry signal, replicate 1 (fluorescence units) = 3.65e7; calcium entry signal, replicate 2 (fluorescence units) = 4.33e7; resting calcium signal, replicate 1 (fluorescence units) = 1.75e7; resting calcium signal, replicate 2 (fluorescence units) = 2.13e7.
With knock-down of Crag [DRSC18454], the screen gave calcium entry signal, replicate 1 (fluorescence units) = 2.94e7; calcium entry signal, replicate 2 (fluorescence units) = 3.24e7; resting calcium signal, replicate 1 (fluorescence units) = 1.45e7; resting calcium signal, replicate 2 (fluorescence units) = 1.54e7.
